Measurements published in PubChem BioAssay AID1671190 (National Center for Advancing Translational Sciences (NCATS), 2021).
Where “and” joins values, the source holds several entries; their conditions need not be identical. Equal values may be shown once. Among all 580,000 compounds or so, about 6,100 (1.1%) were called active. This list was built around the results that the source calls inconclusive (neither active nor inactive); the mix of calls is not that of the screen. The call rests on the fitted dose curve; in most records, active means well fitted inhibition curve with a large enough effect; inconclusive means small, poorly fitted or top-dose-only effect, or another doubt; inactive means no such curve, though single readings can be large or run the other way. Potencies of inconclusive entries are doubtful fits and often do not repeat.

Protein sequences, listed by entry. Tags and fused reporters are not part of them. Lines headed by an entry give the natural chain unless they say otherwise; changes in a name come on top.
UniProt P18054: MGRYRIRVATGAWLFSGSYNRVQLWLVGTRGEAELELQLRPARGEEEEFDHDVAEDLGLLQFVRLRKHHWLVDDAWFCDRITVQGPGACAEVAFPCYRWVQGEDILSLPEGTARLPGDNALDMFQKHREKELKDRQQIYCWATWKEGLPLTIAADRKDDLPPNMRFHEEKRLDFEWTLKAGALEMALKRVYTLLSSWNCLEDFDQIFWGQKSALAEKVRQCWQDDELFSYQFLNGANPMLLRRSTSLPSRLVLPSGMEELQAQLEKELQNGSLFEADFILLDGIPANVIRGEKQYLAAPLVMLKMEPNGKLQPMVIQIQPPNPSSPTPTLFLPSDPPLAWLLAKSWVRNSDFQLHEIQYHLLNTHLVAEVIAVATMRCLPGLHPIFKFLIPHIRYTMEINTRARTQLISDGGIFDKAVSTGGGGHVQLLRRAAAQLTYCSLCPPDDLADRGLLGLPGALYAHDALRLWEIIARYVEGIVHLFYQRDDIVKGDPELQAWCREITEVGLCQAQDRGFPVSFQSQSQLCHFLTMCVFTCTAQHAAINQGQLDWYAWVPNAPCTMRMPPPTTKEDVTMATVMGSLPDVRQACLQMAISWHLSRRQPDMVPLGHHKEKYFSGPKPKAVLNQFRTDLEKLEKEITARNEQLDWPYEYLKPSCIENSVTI

Target: Polyunsaturated fatty acid lipoxygenase ALOX12 (Homo sapiens) (UniProt P18054)
Test: Primary qHTS assay for inhibitors of human arachidonate 12S-lipoxygenase (ALOX12): Round 2
Settings: purified 12hLO, xylenol orange hydroperoxide absorbance; activity change, negative = inhibition: at 108 µM (top of the series) unless noted
Method in brief: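 Purified human 12hLO at 150 nM in 25 mM Hepes, 0.01% Triton X-100, pH 7.0, preincubated 15 min at room temperature with compound. Reaction started with 40 uM arachidonic acid, 30 min at room temperature. Hydroperoxide measured by Fe-xylenol orange, 573/405 nm absorbance ratio.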
On the % scale 0 is the no-effect control and ±100 the full control effect; potency means the concentration at half of the fitted maximal effect.

| Compound | Potency | activity change, negative = inhibition |
| --- | --- | --- |
| CC1(c2nnc(-c3ccc(Cl)cc3)o2)CC(c2ccc([N+](=O)[O-])cc2)=NO1 (configuration not stated) | inconclusive: 50.1 µM [inhibitor, full curve, poor fit] | – |
| COc1ccc(C2CC(=O)c3cc(-c4nc(-c5cccc(Cl)c5)cs4)c(=O)[nH]c3C2)cc1 (configuration not stated) | – | inactive: -2.12% |
| O=C(CCN=C1NS(=O)(=O)c2ccccc21)N(Cc1ccc(F)cc1)C1CC1 | inconclusive: 100 µM [inhibitor, single point] | – |
| CC(=O)Nc1ccc(-c2csc(N/N=C(/C)c3ccccc3)n2)cc1 | inconclusive: 11.2 µM [inhibitor, partial curve, poor fit] | – |
| O=C(Nc1cccc(F)c1)c1cc(-c2ccco2)nc2ccccc12 | inconclusive: 100 µM [inhibitor, partial curve, poor fit] | – |
| CCOc1ccccc1N(C)C(=O)c1c2c(nc3ccccc13)C(=O)N(C1CCCCC1)C2 | inconclusive: 126 µM [inhibitor, partial curve, poor fit] | – |
| CC1CCN(CCNC(=O)C2CCCN(c3ncnc4c3nc3n4CCCCC3)C2)CC1 (configuration not stated) | – | inactive: 5.38% |
| CC(C)c1cc(=O)n2[nH]c(N)nc2n1 | – | inactive: 6.33% |
| COc1cc(C(=O)NC(=S)Nc2ccc3c(c2)C(=O)N(C)C3=O)cc(OC)c1OC | inconclusive: 7.08 µM [inhibitor, full curve] | – |
| c1ccc2c(Nc3nc(N4CCOCC4)c4ccccc4n3)cccc2c1 | inconclusive: 44.7 µM [inhibitor, partial curve, poor fit] and inconclusive: 35.5 µM [inhibitor, partial curve, poor fit] | – |
| C[C@H](CO)N1C[C@H](C)[C@@H](CN(C)Cc2ccncc2)Oc2c(NC(=O)C3CCCCC3)cccc2C1=O | – | inactive: -8.07% |
| COC(=O)C1=C(C)N(CC(C)C)C(=S)NC1c1ccc(Cl)cc1 (configuration not stated) | inconclusive: 44.7 µM [inhibitor, partial curve, poor fit] | – |
| Cc1cc(C)cc(NC(=O)c2c(C)oc3nc(C)nc(N4CCCC4)c23)c1 | inconclusive: 44.7 µM [inhibitor, partial curve, poor fit] | – |
| CCOC(=O)c1ccc(NC(=O)COC)cc1 | inconclusive: 3.55 µM [inhibitor, full curve, poor fit] | – |
| CCOC(=O)c1ccccc1OC(=O)NNc1ccccc1 | inconclusive: 56.2 µM [inhibitor, partial curve, poor fit] | – |
| Cc1cccc(C)c1-c1nc(C(=O)N2CCOCC2)n2ccccc12 | – | inactive: 7.33% [at 6.33 µM] |
| CCCCS(=O)(=O)N1CCC(n2cc(CN3CCCC3)nn2)CC1 | – | inactive: 58.9% |

Single entries from above:
CCOc1ccccc1N(C)C(=O)c1c2c(nc3ccccc13)C(=O)N(C1CCCCC1)C2 | Potency: inconclusive: 126 µM [inhibitor, partial curve, poor fit]
Cc1cccc(C)c1-c1nc(C(=O)N2CCOCC2)n2ccccc12 | activity change, negative = inhibition: inactive: 7.33% [at 6.33 µM]
